From patent US7211119B2, “Coupling components” (Henkel Kommanditgesellschaft auf Aktien (Henkel KGaA), priority 2002, dated 2007)

Assay: Coloration of hair tresses with coloring cream of coupler plus developer component and hydrogen peroxide preparation
Conditions: 1/400 mol each, pH 9.5, 30 minutes at room temperature
Experimental: To prepare the coloring cream, 50 g of a cream base are weighed into a 250 ml beaker and melted at 80° C. The cream base used had the following composition:
In each case, 1/400 mol of the developer or coupler component was suspended or dissolved with heating separately in distilled water. Ammonia (<1 ml; 25% strength ammonia solution) was then added until the pH was between 9 and 10.
The dissolved dye precursors were incorporated one after the other into the hot cream. Then, distilled water was used to make up to 97 g and ammonia was used to establish a pH of 9.5. After making up to 100 g with distilled water, the mixture was stirred under cold conditions (<30° C.), whereupon a homogeneous cream was formed.
For the colorations (unless noted otherwise) in each case 25 g of coloring cream were mixed with 25 g of the following oxidizing agent preparation.
A hair tress (80% gray; 330 mg to 370 mg in weight) was placed into each of the mixtures obtained in this way. The mixtures and the hair tresses were then each placed onto an watchglass and the hair tresses were thoroughly embedded into the coloring creams. After a contact time of 30 minutes (±1 minute) at room temperature, the hair tresses were removed and washed with an aqueous Texapon® EVR solution^9 until the color excess was removed. The hair tresses were dried under air and their color shade was determined under a daylight lamp (color testing instrument HE240A) and noted (Taschenlexikon der Farben [Pocket lexicon of colors], A. Kornerup & J. H. Wanscher, 3rd unrevised edition 1981, MUSTER-SCHMIDT Verlag; Zurich, Göttingen). ^9 Lauryl ether sulfate sodium salt with special additives (about 34 to 37% active substance content; INCI name: Sodium Lauryl Sulfate, Sodium Laureth Sulfate, Lauramide MIPA, Cocamide MEA, Glycol Stearate, Laureth-10) (Cognis)

[1] = developer component 2,4,5,6-Tetraaminopyrimidine sulfate
[2] = developer component 2-(2,5-Diaminophenyl)ethanol sulfate
[3] = developer component p-Tolylenediamine sulfate

For `OCCNc1ccc(NCCO)c2c(O)c(O)oc12` [4,7-bis(2-hydroxyethylamino)-2,3-dihydroxybenzofuran, reference compound], the Coloration [1] was “cinnamon brown”, the Coloration [2] was “gray-brown” and the Coloration [3] was “gray-brown”.
For `COc1ccc(NCCO)cc1NCCO` [2,4-di(β-hydroxyethylamino-1-methoxybenzene, reference compound], the Coloration [1] was “nordic blue”, the Coloration [2] was “marine blue” and the Coloration [3] was “black-blue”.
For `COc1c(C)cc(NCCO)cc1NCCO` [2,4-Bis[(2-hydroxyethyl)amino]-6-methylanisole], the Coloration [1] was “pepper red”, the Coloration [2] was “gray-ruby” and the Coloration (developer component 4,5-Diamino-1-(2-hydroxyethyl)pyrazole sulfate) was “dark violet”. For the same molecule, the Coloration (developer component 4-Amino-2-[(5-amino-2-hydroxyphenyl)methyl]phenol dihydrochloride) was “brown-violet”, the Coloration (developer component 4-Amino-3-methylphenol) was “brown-red” and the Coloration (developer component p-Aminophenol) was “cockscomb red”. The Coloration [3] was “bordeaux red”.
